These are yes or no findings as the source states them, for the method shown. In cells and extracts the contact can be indirect. Some binding calls cover weakened binding; strength is not graded here. Tags and fused reporters may be left off the sequences shown.
T1: SpoIVFB (B) catalytic mutant E44Q fused to GFP (B. subtilis) (UniProt P26937)
T1 sequence: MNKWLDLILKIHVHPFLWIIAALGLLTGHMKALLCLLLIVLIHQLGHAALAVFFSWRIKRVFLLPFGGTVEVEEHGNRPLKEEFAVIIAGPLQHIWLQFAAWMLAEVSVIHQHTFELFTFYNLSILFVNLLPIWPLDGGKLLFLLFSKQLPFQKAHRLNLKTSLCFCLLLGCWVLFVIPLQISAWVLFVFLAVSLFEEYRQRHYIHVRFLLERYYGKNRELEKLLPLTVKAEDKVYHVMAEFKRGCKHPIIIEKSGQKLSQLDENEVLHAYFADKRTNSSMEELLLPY

T2: GFP-A (SpoIVFA fused to GFP) (B. subtilis) (UniProt P26936)
T2 sequence: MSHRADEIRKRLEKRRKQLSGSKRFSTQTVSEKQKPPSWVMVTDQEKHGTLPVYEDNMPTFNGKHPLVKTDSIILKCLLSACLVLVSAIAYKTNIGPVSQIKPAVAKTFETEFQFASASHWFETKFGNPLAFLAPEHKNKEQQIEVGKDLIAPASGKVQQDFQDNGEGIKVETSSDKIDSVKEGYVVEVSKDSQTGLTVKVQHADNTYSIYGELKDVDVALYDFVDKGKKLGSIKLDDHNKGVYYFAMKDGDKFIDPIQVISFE


Key:
[1] = target: T1, SpoIVFB (B) catalytic mutant E44Q fused to GFP (B. subtilis); assay: co-IP; B(E44Q)-GFP immunoprecipitated with anti-GFP antibody resin from crude membranes solubilized with 0.5% digitonin, sporulating cells at hour 4 (IVB+ strain; ΔIVB and ΔsigK strains compared); 4 h at 4°C; SDS-PAGE with silver staining, MS of excised bands, anti-σ^K immunoblot
[2] = target: T2, GFP-A (SpoIVFA fused to GFP) (B. subtilis); assay: co-IP; B-GFP or GFP-A immunoprecipitated from detergent (digitonin)-solubilized membrane preparations, hour 3.5 of sporulation; silver-stained gel, MS or mutant strains for identification, immunoblots of load, flow through and IP

Row | binding [1] | binding [2] | Binder
1 | binds | binds | SpoIIIAH (AH) (protein, UniProt P49785 1-218) MLKKQTVWLLTMLSLVVVLSVYYIMSPESKNAVQMQSEKSASDSGEVATEKAPAKQDTKEKSGTETEKGKEDGTKGTKDSSADKETSAEASEKGTVVTETADDDLFTTYRLDLEDARSKEREELNAIVSSDDATAKEKSEAYDKMTALSEVEGTEKQLETLIKTQGYEDALVNAEGDKINITVKSDKHSKSKATAIIDLVAKEIKTMKDVAVTFEPSK
2 | binds | binds | SpoIIQ (Q) (protein, UniProt P71044 1-283) MREEEKKTSQVKKLQQFFRKRWVFPAIYLVSAAVILTAVLWYQSVSNDEVKDQLADNGGNSAYDNNDDAVEVGKSMENVAMPVVDSENVSVVKKFYETDAAKEEKEAALVTYNNTYSLSKGIDLAEKDGKDFDVSASLSGTVVKAEKDPVLGYVVEVEHADGLSTVYQSLSEVSVEQGDKVKQNQVIGKSGKNLYSEDSGNHVHFEIRKDGVAMNPLNFMDKPVSSIEKAATQETEESIQQSSEKKDGSTEKGTEEKSGEKKDDSTDKSGSKESSTTEDTEQS

Reference: article PMC6242693
